{
  "source": "patent US7507708B2",
  "about": "“Antitumoral compounds” (Pharma Mar, S.A.U., priority 2003, dated 2009)",
  "key": {"[1]": {"tested_on": "Mel-28 (melanoma)", "experiment": "Antitumor activity in hollow fiber (HF) system", "type": "in vivo, human"}, "[2]": {"tested_on": "breast xenografts", "experiment": "In vivo efficacy in breast xenografts (5DD)", "details": "245 μg/kg QD×5 iv, female athymic mice"}, "[3]": {"tested_on": "HELA", "experiment": "In vitro cytotoxic activity, SRB assay", "details": "48 hours exposure"}, "[4]": {"tested_on": "HepG2 (hepatocellular carcinoma)", "experiment": "Antitumor activity in hollow fiber (HF) system", "type": "in vivo, human"}, "[5]": {"tested_on": "prostate xenografts", "experiment": "In vivo efficacy in prostate xenografts (5DD)", "details": "262 μg/kg QD×5 iv, male athymic mice"}, "[6]": {"tested_on": "SK-Hep-1 (hepatoma)", "experiment": "Antitumor activity in hollow fiber (HF) system", "type": "in vivo, human"}, "[7]": {"tested_on": "Panc-1 (pancreas)", "experiment": "Antitumor activity in hollow fiber (HF) system", "type": "in vivo, human"}, "[8]": {"tested_on": "HT-29", "experiment": "In vitro cytotoxic activity, SRB assay", "type": "cell-based, human", "details": "HT-29, 48 hours exposure", "description": "(§1) Plates are washed with deionized water and dried."}, "[9]": {"tested_on": "LOVO", "experiment": "In vitro cytotoxic activity, SRB assay", "type": "cell-based, human", "details": "48 hours exposure", "description": "as §1"}, "[10]": {"tested_on": "IGROV-ET", "experiment": "In vitro cytotoxic activity, SRB assay", "type": "cell-based, human", "details": "48 hours exposure", "description": "as §1"}, "[11]": {"tested_on": "LN-caP", "experiment": "In vitro cytotoxic activity, SRB assay", "type": "cell-based, human", "details": "48 hours exposure", "description": "as §1"}, "[12]": {"tested_on": "A-549", "experiment": "In vitro cytotoxic activity, SRB assay", "type": "cell-based, human", "details": "A-549, 48 hours exposure", "description": "as §1"}, "[13]": {"tested_on": "K-562", "experiment": "In vitro cytotoxic activity, SRB assay", "type": "cell-based, human", "details": "K-562, 48 hours exposure", "description": "as §1"}, "[14]": {"tested_on": "DU-145", "experiment": "In vitro cytotoxic activity, SRB assay", "type": "cell-based, human", "details": "DU-145, 48 hours exposure", "description": "as §1"}, "[15]": {"tested_on": "HELA-APL", "experiment": "In vitro cytotoxic activity, SRB assay", "type": "cell-based, human", "details": "48 hours exposure", "description": "as §1"}, "[16]": {"tested_on": "IGROV", "experiment": "In vitro cytotoxic activity, SRB assay", "type": "cell-based, human", "details": "48 hours exposure", "description": "as §1"}, "[17]": {"tested_on": "SK-BR-3", "experiment": "In vitro cytotoxic activity, SRB assay", "type": "cell-based, human", "details": "SK-BR-3, 48 hours exposure", "description": "as §1"}, "[18]": {"tested_on": "MEL-28", "experiment": "In vitro cytotoxic activity, SRB assay", "type": "cell-based, human", "details": "MEL-28, 48 hours exposure", "description": "as §1"}, "[19]": {"tested_on": "PANC-1", "experiment": "In vitro cytotoxic activity, SRB assay", "type": "cell-based, human", "details": "PANC-1, 48 hours exposure", "description": "as §1"}, "[20]": {"tested_on": "LOVO-DOX", "experiment": "In vitro cytotoxic activity, SRB assay", "type": "cell-based, human", "details": "48 hours exposure", "description": "as §1"}, "[21]": {"details": "HF location ip, 325 μg/kg/day ip, five daily doses, female athymic mice"}, "[22]": {"details": "HF location sc, 325 μg/kg/day ip, five daily doses, female athymic mice"}},
  "note": "At least one peptide structure holds a part that was inferred or is arguable (an end, a ring closure or a residue). Marks after values point to notes of the source that are not given here.",
  "data": [
    {"compound": "C/C=C1\\NC(=O)[C@H](Cc2ccccc2)NC(=O)[C@@H](C(C)C)NC(=O)[C@@H]([C@@H](C)CC)NC(=O)[C@H](NC(=O)[C@H](NC(=O)[C@H](CCCN)NC(=O)[C@H]2CCCN2C(=O)[C@H](NC(=O)[C@@H](NC(=O)[C@@H](NC(=O)[C@H](NC(=O)CC[C@@H](C)CC)C(C)C)[C@@H](C)O)C(C)C)C(C)C)[C@@H](C)CC)[C@@H](C)OC(=O)[C@H](C(C)C)NC1=O", "note": "[(4S)-methylhexanoic KF, 4(S)-MeHex-D-Val-L-Thr-L-VaI-D-Val-D-Pro-L-Orn-D-allo-Ile-cyclo(D-allo-Thr-D-allo-Ile-D-Val-L-Phe-Z-Dhb-L-Val)]", "values": [
      {"measurement": "Mel-28 ip", "setting": "[1]; [21]", "result": "1.906 arbitrary number of cells/HF"},
      {"measurement": "Mel-28 sc", "setting": "[1]; [22]", "result": "1.51 arbitrary number of cells/HF"},
      {"measurement": "antitumor activity against melanoma, in words", "setting": "[1]; hollow fiber, sc compartment", "result": "trend towards significance"},
      {"measurement": "% ΔT/ΔC", "setting": "[2]; Day 3", "result": 44, "unit": "%"},
      {"measurement": "Net tumor Growth", "setting": "[2]; n = 9, Day 3", "result": 74, "unit": "mm^3"},
      {"measurement": "TGI", "setting": "[3]", "result": "2.42E−06", "unit": "Molar"},
      {"measurement": "HepG2 ip", "setting": "[4]; [21]", "result": "0.335* arbitrary number of cells/HF"},
      {"measurement": "HepG2 sc", "setting": "[4]; [22]", "result": "0.319* arbitrary number of cells/HF"},
      {"measurement": "antitumor activity against hepatocellular carcinoma, in words", "setting": "[4]; hollow fiber, KF-4(S)-Met: both ip and sc", "result": "statistically significant antitumor activity"},
      {"measurement": "% ΔT/ΔC", "setting": "[5]; Day 3", "result": 26, "unit": "%"},
      {"measurement": "Net tumor Growth", "setting": "[5]; n = 10, Day 3", "result": 62, "unit": "mm^3"},
      {"measurement": "SK-Hep-1 ip", "setting": "[6]; [21]", "result": "0.485 arbitrary number of cells/HF"},
      {"measurement": "SK-Hep-1 sc", "setting": "[6]; [22]", "result": "0.525* arbitrary number of cells/HF"},
      {"measurement": "antitumor activity against hepatoma, in words", "setting": "[6]; hollow fiber, KF-4(S)-Met: sc", "result": "statistically significant antitumor activity"},
      {"measurement": "Panc-1 ip", "setting": "[7]; [21]", "result": "0.129* arbitrary number of cells/HF"},
      {"measurement": "Panc-1 sc", "setting": "[7]; [22]", "result": "0.237^§ arbitrary number of cells/HF"},
      {"measurement": "antitumor activity against pancreas, in words", "setting": "[7]; hollow fiber, KF-4(S)-Met: ip (sc trend, P=0.059), KF-5-Met: both ip and sc", "result": "statistically significant antitumor activity"},
      {"measurement": "TGI", "setting": "[8]", "result": "7.51E−07", "unit": "Molar"},
      {"measurement": "TGI", "setting": "[9]", "result": "3.08E−07", "unit": "Molar"},
      {"measurement": "TGI", "setting": "[10]", "result": "4.79E−07", "unit": "Molar"},
      {"measurement": "TGI", "setting": "[11]", "result": "2.58E−06", "unit": "Molar"},
      {"measurement": "TGI", "setting": "[12]", "result": "7.17E−07", "unit": "Molar"},
      {"measurement": "TGI", "setting": "[13]", "result": "6.77E−06", "unit": "Molar"},
      {"measurement": "TGI", "setting": "[14]", "result": "6.97E−07", "unit": "Molar"},
      {"measurement": "TGI", "setting": "[15]", "result": "2.13E−06", "unit": "Molar"},
      {"measurement": "TGI", "setting": "[16]", "result": "7.51E−07", "unit": "Molar"},
      {"measurement": "TGI", "setting": "[17]", "result": "3.32E−07", "unit": "Molar"},
      {"measurement": "TGI", "setting": "[18]", "result": "2.60E−06", "unit": "Molar"},
      {"measurement": "TGI", "setting": "[19]", "result": "6.77E−06", "unit": "Molar"},
      {"measurement": "TGI", "setting": "[20]", "result": "3.25E−07", "unit": "Molar"}
    ]}
  ]
}
